These are yes or no findings as the source states them, for the method shown. Binding seen in cells or lysates may run through a third protein. Some results given as binding are weak or reduced against the parent protein; the word gives no strength. For some assays here: Tags and fused reporters may be left off the sequences shown. Values belong to the binder of their own block, whether it stands above or below them.
Legend:
GFP-tagged Vps41, P49754 = target: T1, GFP-tagged Vps41, P49754; assay: co-IP; IP of GFP-tagged subunits overexpressed in HeLa cells, blot for endogenous Vps8; lysis buffer 40 mM TRIS pH 7.4, 100 mM NaCl, 0.1% TX-100, 5 mM EDTA; protein A beads with antibody, 1 h at 4 °C; settings: remark: other sources report otherwise
T1 chain: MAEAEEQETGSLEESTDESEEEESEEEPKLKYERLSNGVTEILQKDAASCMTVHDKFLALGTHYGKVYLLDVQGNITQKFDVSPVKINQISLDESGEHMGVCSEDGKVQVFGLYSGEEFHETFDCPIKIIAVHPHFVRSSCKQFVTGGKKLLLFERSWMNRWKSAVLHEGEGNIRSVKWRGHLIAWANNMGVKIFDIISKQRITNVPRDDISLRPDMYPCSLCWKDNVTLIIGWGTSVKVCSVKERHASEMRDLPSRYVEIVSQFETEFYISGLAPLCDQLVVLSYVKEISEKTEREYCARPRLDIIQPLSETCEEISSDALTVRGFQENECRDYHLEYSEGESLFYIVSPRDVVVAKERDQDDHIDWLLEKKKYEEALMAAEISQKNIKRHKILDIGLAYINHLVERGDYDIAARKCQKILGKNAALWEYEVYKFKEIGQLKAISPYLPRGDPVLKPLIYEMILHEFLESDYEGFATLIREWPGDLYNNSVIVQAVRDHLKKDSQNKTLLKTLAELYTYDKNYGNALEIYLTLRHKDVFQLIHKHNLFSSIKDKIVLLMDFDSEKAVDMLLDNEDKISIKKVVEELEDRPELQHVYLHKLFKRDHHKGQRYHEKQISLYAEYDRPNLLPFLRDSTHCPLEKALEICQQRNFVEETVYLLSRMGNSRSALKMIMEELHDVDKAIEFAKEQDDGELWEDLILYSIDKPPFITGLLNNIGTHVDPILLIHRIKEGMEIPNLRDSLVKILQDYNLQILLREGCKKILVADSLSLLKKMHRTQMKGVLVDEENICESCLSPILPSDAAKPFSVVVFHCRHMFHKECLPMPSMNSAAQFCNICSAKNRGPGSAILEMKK

[1] = target: T2, Vps3 (proximity ligation assay in HeLa cells) (UniProt Q8WUH2); assay: proximity ligation; PLA on fixed, permeabilised HeLa cells with mouse PLUS and rabbit MINUS probes; signal corrected for protein expression and cell size
T2 sequence: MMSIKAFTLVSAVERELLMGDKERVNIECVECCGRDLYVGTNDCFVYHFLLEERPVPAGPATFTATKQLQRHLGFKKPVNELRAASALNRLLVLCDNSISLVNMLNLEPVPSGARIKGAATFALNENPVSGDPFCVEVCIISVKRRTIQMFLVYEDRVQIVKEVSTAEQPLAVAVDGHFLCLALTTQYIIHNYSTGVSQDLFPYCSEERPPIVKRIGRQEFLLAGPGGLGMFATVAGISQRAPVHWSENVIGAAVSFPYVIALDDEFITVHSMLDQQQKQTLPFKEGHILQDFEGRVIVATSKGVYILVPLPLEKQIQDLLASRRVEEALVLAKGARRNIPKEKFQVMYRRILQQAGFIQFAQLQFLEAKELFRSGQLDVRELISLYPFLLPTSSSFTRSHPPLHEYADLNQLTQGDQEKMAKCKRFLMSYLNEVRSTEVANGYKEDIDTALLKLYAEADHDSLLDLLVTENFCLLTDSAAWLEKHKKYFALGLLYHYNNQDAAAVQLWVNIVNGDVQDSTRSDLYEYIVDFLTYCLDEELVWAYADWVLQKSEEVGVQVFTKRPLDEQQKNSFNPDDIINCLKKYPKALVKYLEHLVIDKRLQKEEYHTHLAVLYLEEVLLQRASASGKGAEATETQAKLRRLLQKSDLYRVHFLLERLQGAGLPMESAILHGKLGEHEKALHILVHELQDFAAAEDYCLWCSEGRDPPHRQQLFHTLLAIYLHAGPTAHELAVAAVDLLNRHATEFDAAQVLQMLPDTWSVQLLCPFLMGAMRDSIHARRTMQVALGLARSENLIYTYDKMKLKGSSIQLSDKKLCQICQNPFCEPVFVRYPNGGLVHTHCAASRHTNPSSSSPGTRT

binding (GFP-tagged Vps41, P49754): binds
B1: endogenous Vps8, Q8N3P4 1-1428 (protein)
chain: MENEPDHENVEQSLCAKTSEEELNKSFNLEASLSKFSYIDMDKELEFKNDLIDDKEFDIPQVDTPPTLESILNETDDEDESFILEDPTLLNIDTIDSHSYDTSSVASSDSGDRTNLKRKKKLPDSFSLHGSVMRHSLLKGISAQIVSAADKVDAGLPTAIAVSSLIAVGTSHGLALIFGKDQNQALRLCLGSTSVGGQYGAISALSINNDCSRLLCGFAKGQITMWDLASGKLLRSITDAHPPGTAILHIKFTDDPTLAICNDSGGSVFELTFKRVMGVRTCESRCLFSGSKGEVCCIEPLHSKPELKDHPITQFSLLAMASLTKILVIGLKPSLKVWMTFPYGRMDPSSVPLLAWHFVAVQNYVNPMLAFCRGDVVHFLLVKRDESGAIHVTKQKHLHLYYDLINFTWINSRTVVLLDSVEKLHVIDRQTQEELETVEISEVQLVYNSSHFKSLATGGNVSQALALVGEKACYQSISSYGGQIFYLGTKSVYVMMLRSWRERVDHLLKQDCLTEALALAWSFHEGKAKAVVGLSGDASKRKAIVADRMVEILFHYADRALKKCPDQGKIQVMEQHFQDMVPVIVDYCLLLQRKDLLFSQMYDKLSENSVAKGVFLECLEPYILSDKLVGITPQVMKDLIVHFQDKKLMENVEALIVHMDITSLDIQQVVLMCWENRLYDAMIYVYNRGMNEFISPMEKLFRVIAPPLNAGKTLTDEQVVMGNKLLVYISCCLAGRAYPLGDIPEDLVPLVKNQVFEFLIRLHSAEASPEEEIYPYIRTLLHFDTREFLNVLALTFEDFKNDKQAVEYQQRIVDILLKVMVENSDFTPSQVGCLFTFLARQLAKPDNTLFVNRTLFDQVLEFLCSPDDDSRHSERQQVLLELLQAGGIVQFEESRLIRMAEKAEFYQICEFMYEREHQYDKIIDCYLRDPLREEEVFNYIHNILSIPGHSAEEKQSVWQKAMDHIEELVSLKPCKAAELVATHFSGHIETVIKKLQNQVLLFKFLRSLLDPREGIHVNQELLQISPCITEQFIELLCQFNPTQVIETLQVLECYRLEETIQITQKYQLHEVTAYLLEKKGDIHGAFLIMLERLQSKLQEVTHQGENTKEDPSLKDVEDTMVETIALCQRNSHNLNQQQREALWFPLLEAMMAPQKLSSSAIPHLHSEALKSLTMQVLNSMAAFIALPSILQRILQDPVYGKGKLGEIQGLILGMLDTFNYEQTLLETTTSLLNQDLHWSLCNLRASVTRGLNPKQDYCSICLQQYKRRQEMADEIIVFSCGHLYHSFCLQNKECTVEFEGQTRWTCYKCSSSNKVGKLSENSSEIKKGRITPSQVKMSPSYHQSKGDPTAKKGTSEPVLDPQQIQAFDQLCRLYRGSSRLALLTELSQNRSSESYRPFSGSQSAPAFNSIFQNENFQLQLIPPPVTED

binding [1]: binds
B2: Vps8 (proximity ligation assay in HeLa cells) (protein, UniProt Q8N3P4 1-1428)
chain: B1 chain

Source: article PMC5824891
